According to PMC11334304:
Results are given in words; binding and its absence hold for the method and conditions named. Binding seen in cells or lysates may run through a third protein. Some entries that bind do so weakly or less than the wild type.

Molecular target: T1, Aurora kinase A (AURKA) (human (endogenous in COLO205 and HT29)) (UniProt O14965)
T1 sequence: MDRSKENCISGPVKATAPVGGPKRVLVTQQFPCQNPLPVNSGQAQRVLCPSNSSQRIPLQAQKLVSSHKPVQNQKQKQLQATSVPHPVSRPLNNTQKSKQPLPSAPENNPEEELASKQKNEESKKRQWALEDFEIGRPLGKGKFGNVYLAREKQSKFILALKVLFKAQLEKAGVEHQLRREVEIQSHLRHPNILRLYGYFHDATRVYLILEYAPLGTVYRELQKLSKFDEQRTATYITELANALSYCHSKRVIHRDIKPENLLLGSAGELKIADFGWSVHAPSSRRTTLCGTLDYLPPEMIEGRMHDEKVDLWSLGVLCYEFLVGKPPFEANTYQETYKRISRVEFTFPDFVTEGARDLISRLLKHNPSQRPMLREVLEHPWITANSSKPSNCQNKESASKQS
Test: co-IP; endogenous proteins; lysates of COLO205 and HT29 cells, untreated or treated with AT9283 (15 nM, 100 nM), in IP-RIPA buffer (1% Triton, 150 mM NaCl, 50 mM Tris/HCl, 1 mM EDTA); 700 ug lysate per sample; IP overnight at 4 °C with anti-pMKK3 or anti-Aurora A, Protein G PLUS-A agarose; blot for MKK3 and Aurora A

B1: Mitogen activated protein kinase kinase 3 (MKK3) (protein, UniProt P46734 1-347)
chain: MESPASSQPASMPQSKGKSKRKKDLRISCMSKPPAPNPTPPRNLDSRTFITIGDRNFEVEADDLVTISELGRGAYGVVEKVRHAQSGTIMAVKRIRATVNSQEQKRLLMDLDINMRTVDCFYTVTFYGALFREGDVWICMELMDTSLDKFYRKVLDKNMTIPEDILGEIAVSIVRALEHLHSKLSVIHRDVKPSNVLINKEGHVKMCDFGISGYLVDSVAKTMDAGCKPYMAPERINPELNQKGYNVKSDVWSLGITMIEMAILRFPYESWGTPFQQLKQVVEEPSPQLPADRFSPEFVDFTAQCLRKNPAERMSYLELMEHPFFTLHKTKKTDIAAFVKEILGEDS
  binding: binds
